We go through 3 molecules from patent US20100172907A1.

Chains of the proteins cited; added tags and fusions are not shown. Residues count along the entry.
UniProt P05067, residues 672-713: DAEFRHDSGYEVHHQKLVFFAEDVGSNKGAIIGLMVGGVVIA

Assay [1] has as its target amyloid plaques in cryostat sections of human temporal cortex (Alzheimer's disease) (human) (UniProt P05067). The assay is described as follows: indirect immunofluorescence, AD brain sections, 0.05 and 0.01 µg/ml.
The target is the same in assay [2]. The assay can be described thus: indirect immunofluorescence on cryostat sections of human AD temporal cortex, goat anti-human (H+L)-Cy3.
Assay [3] has the same target. The assay is described as follows: immunohistochemistry, AD brain sections.

Where a chain is given by its changes, count along the chain named. No constants are given. Whether binding was seen depends on the method and setting. Some binding calls cover weakened binding; strength is not graded here.

B1: MS-R #7.9.H7 IgG1 (antibody, V domains shown)
VH: QVELVESGGGLVQPGGSLRLSCAASGFTFSSYAMSWVRQAPGKGLEWVSAINASGTRTYYADSVKGRFTISRDNSKNTLYLQMNSLRAEDTAVYYCARGKGNTHKPYGYVRYFDVWGQGTLVTVSS
VL: DIVLTQSPATLSLSPGERATLSCRASQSVSSSYLAWYQQKPGQAPRLLIYGASSRATGVPARFSGSGSGTDFTLTISSLEPEDFATYYCLQIYNMPITFGQGTKVEIKR
Turning to B1, the binding result in assay [1] and in assay [2] was “binds” throughout.

B2: MS-Roche #7.9.H3 Fab (Fab, V domains shown)
VH: B1 VH with E3Q, A53Y, S54Q, T56N, T58K
VL: B1 VL
Regarding B2, the binding result in assay [3] was “binds”.

B3: MS-Roche #7.9.H2 Fab (Fab, V domains shown)
VH: B1 VH with E3Q, S54D, T56N, T58K
VL: B1 VL
B3: in assay [3], the binding entry is on record as “binds”.
